Measured values taken from publication PMC12071331.
These are yes or no findings as the source states them, for the method shown. Binding seen in cells or lysates may run through a third protein. Some binding calls cover weakened binding; strength is not graded here.

Amino acid sequences for entries named in this document (tags omitted).
UniProt P35222: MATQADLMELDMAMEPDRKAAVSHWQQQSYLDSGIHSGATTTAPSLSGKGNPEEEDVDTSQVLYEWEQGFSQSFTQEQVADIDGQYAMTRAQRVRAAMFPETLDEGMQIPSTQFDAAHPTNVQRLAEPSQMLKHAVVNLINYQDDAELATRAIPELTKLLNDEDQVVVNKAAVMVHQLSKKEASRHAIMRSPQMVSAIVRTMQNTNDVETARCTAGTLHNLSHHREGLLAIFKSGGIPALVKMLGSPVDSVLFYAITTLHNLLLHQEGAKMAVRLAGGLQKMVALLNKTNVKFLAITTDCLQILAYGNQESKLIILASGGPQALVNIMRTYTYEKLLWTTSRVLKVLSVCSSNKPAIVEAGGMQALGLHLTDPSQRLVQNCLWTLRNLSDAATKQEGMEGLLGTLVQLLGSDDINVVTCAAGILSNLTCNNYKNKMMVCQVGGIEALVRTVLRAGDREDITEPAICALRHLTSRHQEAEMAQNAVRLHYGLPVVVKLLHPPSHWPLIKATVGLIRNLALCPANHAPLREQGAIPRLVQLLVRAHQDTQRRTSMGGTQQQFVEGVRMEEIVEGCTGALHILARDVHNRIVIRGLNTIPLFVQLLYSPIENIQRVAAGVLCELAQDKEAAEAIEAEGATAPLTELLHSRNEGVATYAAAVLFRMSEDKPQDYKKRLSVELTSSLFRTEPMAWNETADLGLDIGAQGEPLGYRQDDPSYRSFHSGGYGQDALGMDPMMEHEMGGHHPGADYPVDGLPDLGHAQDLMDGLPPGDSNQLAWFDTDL
UniProt O15169: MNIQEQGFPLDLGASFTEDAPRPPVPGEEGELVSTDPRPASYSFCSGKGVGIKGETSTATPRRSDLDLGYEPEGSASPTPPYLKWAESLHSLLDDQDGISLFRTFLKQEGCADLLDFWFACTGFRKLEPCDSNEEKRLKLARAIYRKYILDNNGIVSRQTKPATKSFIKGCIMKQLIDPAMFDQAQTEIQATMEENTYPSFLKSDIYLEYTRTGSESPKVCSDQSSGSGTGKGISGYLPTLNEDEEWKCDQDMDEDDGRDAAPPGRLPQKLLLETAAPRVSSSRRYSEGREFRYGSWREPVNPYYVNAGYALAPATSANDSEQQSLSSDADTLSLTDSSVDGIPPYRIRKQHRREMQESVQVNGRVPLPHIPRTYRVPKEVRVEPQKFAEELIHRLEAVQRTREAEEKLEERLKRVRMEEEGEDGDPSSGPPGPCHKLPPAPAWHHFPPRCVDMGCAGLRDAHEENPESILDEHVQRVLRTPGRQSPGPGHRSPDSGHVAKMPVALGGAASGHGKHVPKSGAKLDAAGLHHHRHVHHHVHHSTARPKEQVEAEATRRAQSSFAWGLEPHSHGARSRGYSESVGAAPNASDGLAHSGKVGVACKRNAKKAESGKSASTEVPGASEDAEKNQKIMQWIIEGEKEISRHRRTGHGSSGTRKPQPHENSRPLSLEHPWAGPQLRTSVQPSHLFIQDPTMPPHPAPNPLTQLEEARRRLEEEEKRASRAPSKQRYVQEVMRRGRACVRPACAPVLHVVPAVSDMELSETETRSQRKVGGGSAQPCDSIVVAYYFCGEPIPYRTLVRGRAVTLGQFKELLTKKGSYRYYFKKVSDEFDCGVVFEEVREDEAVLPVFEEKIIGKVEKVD

Molecular target: β-catenin (human (endogenous in Caco2)) (UniProt P35222)
Assay: co-IP; Caco2 cell lysates precleared with protein A/G beads, incubated with β-catenin antibody at 4 °C overnight, protein A/G beads 1 h, immunoblot; cells untreated, treated with 10 μM 5-HT for 24 h, or pretreated with 20 μM SB269970 (HTR7 antagonist) for 2 h and then 5-HT

## Axin1 (from UniProt O15169 1-862)
  binding: binds
